Laboratory results as given in the supplement of paper PMC3334620.
The full ranking holds about 33,000 sequences; the median of “E-score (-0.5 to 0.5)” is about -8e-05, and the highest 2% start at about 0.23. This is one part of the list.

Target: T1, Nrg2 (UniProt P38082)
T1 sequence: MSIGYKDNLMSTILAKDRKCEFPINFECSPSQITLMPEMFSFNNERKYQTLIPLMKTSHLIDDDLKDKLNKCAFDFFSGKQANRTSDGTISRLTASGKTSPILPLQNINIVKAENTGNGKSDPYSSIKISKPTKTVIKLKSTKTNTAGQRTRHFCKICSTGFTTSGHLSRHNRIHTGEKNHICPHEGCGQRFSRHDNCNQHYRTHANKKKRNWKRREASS
Experiment: PBM E-score (8-mer binding enrichment) (E-score (-0.5 to 0.5)); higher = stronger / more preferred TF binding
Details: protein concentration: 100 nM; construct: GST-full length
Outline: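 Universal all-10-mer Agilent arrays, double-stranded by primer extension on fresh or once-stripped slides, were probed with about 100-200 nM GST-tagged yeast transcription factors made by PURExpress. Fluorescent anti-GST detected bound protein, and masliner normalised the scans. E-scores from the Universal PBM Analysis Suite were given to each ungapped eight-base word pooled with its reverse complement.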

Sequence | PBM E-score
GATAATGA | 0.0809
GACCCATA | 0.118
AAGAAAGT | 0.136
AGGTGTCC | -0.0496
ACTCTATA | 0.0465
CATCGTAA | 0.0341
ACTCACGC | 0.0454
GGTCATCA | -0.0816
CGCCGTTC | 0.00368
ACGATCGG | 0.0497
CCTGAGAC | 0.0415
GAGCTACA | -0.114
CATATATA | 0.205
AGGGACCC | 0.337
AGTAAAGC | 0.00303
TCCTTTCA | 0.0779
AACAGGAC | -0.0901
AACCGCCG | -0.0452
AGACAATG | -0.0393
TCAATCGA | 0.115
ATCCCAAA | 0.0552
AGAAACAG | -0.012
CAGAGTGG | -0.0767
ACGTAGTG | -0.0314
GATTACCA | 0.00091

Looked up one by one from the list above (6):
Sequence | PBM E-score
GATAATGA | 0.0809
AGGTGTCC | -0.0496
AGACAATG | -0.0393
CATATATA | 0.205
AGTAAAGC | 0.00303
ACTCTATA | 0.0465

Additional results follow.

Sequence | PBM E-score
CATTAGGG | -0.0266
AAAGTAGT | 0.0374
AGACGCCT | -0.193
ACATCACA | 0.12
AACTACTA | 0.296
GCCGATTA | 0.104
GCGTCAGA | 0.104
ATTGCCCC | -0.00346
CCAGGCCC | 0.00251
CCTACTAC | -0.0683
GCCGTGCA | -0.0954
TAACTGGA | -0.0611
GGCCTACC | 0.0167
CCTAGGTC | 0.00388
ATGAGTAC | 0.0946
CCTCGTAC | 0.0199
AACTTTTA | 0.066
CCTCAAAA | 0.0802
GCTTTACC | -0.044
CTGTCAAG | -0.061
GGAACCCC | -0.0672
CTGACAAG | 0.0826
CTAATATA | 0.13
AAGACGCC | -0.0542
AGGCCAGG | 0.122

Quoted from the entries so far for reference:
Sequence | PBM E-score
AAGAAAGT | 0.136
AGGTGTCC | -0.0496
ACTCTATA | 0.0465

The results go on:

Sequence | PBM E-score
ATCAAAAG | 0.00066
GTAGCCGA | -0.0629
CACCTGCA | -0.125
GAACGTGA | -0.0419
GCCTCGTA | 0.0621
ACAGACGC | -0.0339
ACCCTTTC | 0.125
GACGCTCC | -0.124
CATGCTAA | 0.0377
GGGCGCCC | 0.282
CGTCGGAG | -0.0424
CTAATGCA | 0.116
ATAAACCG | 0.109
CACGTCTC | 0.00538
GCGCACCC | 0.0702
GCCTGAAA | 0.115
ACACACGG | -0.0545
AACCGACC | 0.0889
GAATAACC | 0.0897
CAACGCAG | -0.0929
ATGCTGAG | -0.169
CGCAGTTA | -0.0242
ACTGGTCT | -0.245
AATAAGCC | 0.0777
ATGAGCAT | 0.0227

Sequence | PBM E-score
CCGCCTGA | -0.0981
CAGGTTTA | 0.00341
AGCGATGA | 0.0315
TAAGACGA | -0.008
ATGAGAAA | 0.0922
ACGGTGCC | -0.128
ACAAAGTC | -0.0258
CAGATATC | 0.133
AGTGTCAA | -0.0281
ACTAGACT | -0.224
CCCGCACG | -0.156
ACCTAGGT | 0.0136
AGTGAAAA | 0.00081
CCGCTGAC | -0.154
GTATCGCA | -0.0868
GAATCACC | 0.0858
CGGGACCG | -0.0394
GCGGGCTA | -0.156
ACGAGCAT | -0.14
CCGTACTA | 0.192
GATTACTA | 0.0272
AAACCCCG | 0.148
CACTAGCG | -0.0585
CCAGGGTA | 0.304
CAAGCCTA | -0.00885

Sequence | PBM E-score
CTTTGGAC | 0.0441
ATTCTCGG | 0.0274
ACCAACGA | -0.0218
GTCACCAC | -0.185
GCACAAGA | 0.105
TCCCGAGA | -0.0695
CAAGGTCC | -0.0334
AGCTTTCG | -0.106
ACGTTACG | -0.127
TATCCCAA | -0.005
AGACTTAG | -0.237
GTAACCCA | 0.229
ACGACACG | 0.0863
AGGAACAA | 0.0122
ACTAAGAA | 0.221
AGTTCGGC | -0.0543
TATGAGGA | -0.16
TACATTGA | 0.0248
CCTAGTTA | 0.0772
CATCGTAG | -0.227
CCCACTCA | -0.1
GGACCAAA | 0.0688
GGCCATAC | 0.0138
ACGAGTCC | -0.00759
ACGCTTAC | 0.0218

Sequence | PBM E-score
ATTGTAGC | -0.0306
CATATCAC | 0.0206
ATCTATCC | 0.0522
AGGTATCA | 0.0486
CCGAACAC | -0.0339
ATTGCTAC | -0.0978
AAGAGAAT | 0.231
TCGTAAGA | -0.0328
GTGTAACA | 0.0279
CGGGAACC | -0.101
AAGTGTTC | 0.0551
AAGTATGA | 0.0335
GTAGTCAA | -0.0818
GGATAGCC | -0.177
GCCCCTAC | -0.0126
AGTTAAAA | 0.167
ACAAGGTA | 0.0234
AATAGCGC | 0.132
CTGGCCCC | 0.163
CTACTGGC | -0.0271
AACACTCG | 0.0879
GGTCCACA | -0.00829
AAAGGACC | -0.0133
CTCTGAGC | -0.16
ATGACCAA | 0.0462

Sequence | PBM E-score
CTCCAGCA | -0.0907
CTCGTCCA | -0.0137
AAGATCGA | 0.0393
GTCATGAA | 0.118
AATGTGAT | 0.0439
ACGGTCGC | -0.131
GTCGACCA | -0.114
GATTCACC | -0.045
AGCGCACC | 0.00999
AGGCTACT | -0.0686
AGGGTGTA | 0.116
AAATGAGG | -0.0974
GCCTCGCC | -0.218
ATGTCGAC | 0.254
AAACTCCG | -0.0654
GTATATAC | 0.0119
ACCTTTAA | -0.13
TCGACGCA | 0.0386
CTGTCATC | -0.0897
CATTAAGC | 0.108
CCTTCTCA | 0.097
CTTTGTGA | -0.0138
